The record followed here is PubChem BioAssay AID493014 (National Center for Advancing Translational Sciences (NCATS), 2011).

The other results are listed elsewhere or left out. These are further read-outs of the screen, such as a control signal, another cell line or another target. No call is given for them. Most of these compounds were active or inconclusive in the main read-out, so they are no random draw. The note in brackets gives the kind of curve behind each potency; many fits are weak.

This experiment can be described thus: qHTS Assay to Find Inhibitors of Chronic Active B-Cell Receptor Signaling. To be noted: ABC-DLBCL IkBa-CBG/CBR reporter, luminescence ratio (green luciferase fused to IkBa over red control in TMD8 lymphoma cells), 4 h. The procedure, abridged: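 TMD8 ABC-DLBCL cells carrying doxycycline-inducible green luciferase fused to IkappaBalpha plus unfused red luciferase were exposed to compounds (up to 46 uM) for 4 hrs at 37C. Activity came from the overlap-corrected green/red luminescence ratio.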

Setting [1] is: measured here: CBR red luminescence, cell number.
Where [2] appears, read: measured here: IkBa-CBG green luminescence.

As a reminder, the AC50 is the midpoint of the concentration-response curve, whichever way the signal moves. Consider `COc1ccc(CNC(=O)COc2ccccc2C(=O)c2cnn(-c3ccccc3)c2)cc1OC`, for which, under setting [1], the AC50 was 29.1 µM [falling, single point]. For the compound `COc1ccc(OC)c(-c2nc(C(=O)NCC3CCCO3)cc3c2[nH]c2ccccc23)c1` (configuration not stated), the AC50 under setting [1] is 1.58 µM [falling, partial curve, poor fit].

For `COc1cccc(N2C(=O)C3CCCN3C2c2ccc(F)cc2)c1` (configuration not stated), the AC50 under setting [1] was 3.98 µM [rising, single point]. Same read-out and setting: then `Cc1n[nH]c(C)c1CCc1nc2c3ccccc3nc(SCC(=O)Nc3ccccc3F)n2n1`, with 20.6 µM [rising, single point]; and `COc1ccc2c(c1)OC[C@H]1[C@@H]2N2C(=O)CNC(=O)[C@@]2(C)[C@H]1c1ccccc1`, with 29.1 µM [rising, single point]; and `COc1ccc(CCNC(=O)CN2CCC(C)CC2)cc1OC`, with 3.26 µM [falling, single point].

Consider `CCC(C)(C)NC(=O)c1cc(C(=O)OC)cc([N+](=O)[O-])c1`, for which, under setting [1], the AC50 is 4.11 µM [falling, partial curve, poor fit]. On the same count and under the same terms, in the case of `Cc1cc(-c2ccccc2)c2c3c(cn2n1)c(=O)n(C)c(=O)n3C` it was 23.1 µM [falling, single point].

For `COC(=O)CCC(=O)NC(=S)Nc1ccccc1F`, the AC50 under setting [1] was 5.62 µM [falling, partial curve, poor fit]. Same read-out and setting: in the case of `COC(=O)C(NC(=O)c1ccc(F)cc1)(Nc1ncc(S(=O)(=O)c2ccc([N+](=O)[O-])cc2)s1)C(F)(F)F` (configuration not stated) it was 35.5 µM [falling, partial curve, poor fit]; in that of `CCOc1ccc(NC(=O)Nc2cc(OCC(F)(F)F)cc(OCC(F)(F)F)c2)cc1`, 16.4 µM [falling, partial curve, poor fit]; in that of `CCCCn1c(N)c(N(CCOC)C(=O)CSCc2ccc(C)cc2)c(=O)[nH]c1=O`, 3.66 µM [rising, partial curve, poor fit]. The same measure, in the same setting: then `OC(CNCCNc1ncccc1C(F)(F)F)Cn1ccc2ccccc21` (configuration not stated), with 12.6 µM [falling, single point]. On to `O=C1C2C(C(=O)N1CCc1ccccc1)C1C=CC2C12CC2` (configuration not stated), for which the AC50 under setting [1] was 16.4 µM [rising, partial curve, poor fit]. The same measure, in the same setting: then `CCOC(=O)CN1CCc2c(C)nc3c(-c4ccc(OC)c(OC)c4)cnn3c21`, with 29.1 µM [rising, partial curve, poor fit]; and `COc1ccc(OCCCC(=O)NCCc2ccccc2)cc1`, with 11.6 µM [rising, partial curve, poor fit]. On the same count and under the same terms, in the case of `COCC(=O)N(C)C1(c2nnnn2CCOC(=O)Nc2cccc3ccccc23)CCCC1` it was 3.66 µM [falling, partial curve, poor fit]. Regarding `NC(=S)n1[nH]c(-c2ccc([N+](=O)[O-])cc2)c(N=Nc2cccc(Cl)c2)c1=O`, the AC50 was 3.55 µM [rising, partial curve, poor fit] under setting [1] and 3.55 µM [falling, full curve] under setting [2]. As to `N=c1n(Cc2ccccc2Cl)c2ccccc2n1CC(O)c1ccco1` (configuration not stated), the AC50 under setting [1] was 14.1 µM [falling, single point]. The same measure, in the same setting: in the case of `O=C(O)CCc1ccc(-c2cccs2)n1-c1ccc(C(=O)O)cc1` it was 35.5 µM [falling, single point]; in that of `O=C(CN(C(=O)CNC(=O)c1cccs1)c1ccccc1F)NC1CCCCC1`, 15.8 µM [falling, partial curve, poor fit]; in that of `O=[N+]([O-])c1ccc2nc(-c3ccccn3)[nH]c2c1`, 35.5 µM [falling, single point].

For the compound `O=C1C(Cl)=C(NCc2cccnc2)C(=O)c2ccccc21`, the AC50 was 35.5 µM [falling, single point] under setting [1] and 20 µM [rising, single point] under setting [2]. Regarding `COc1cc(OC)cc(C(=O)N2CC(=O)Nc3ccccc32)c1`, the AC50 under setting [1] is 0.501 µM [rising, full curve, poor fit] and the concentration at half-maximal activity (AC50) under setting [2] is 22.4 µM [falling, partial curve, poor fit]. In the case of `CC(C)c1ccc(NC(=O)C2CCCCN2S(=O)(=O)c2ccccc2)cc1` (configuration not stated), the half-maximal activity concentration (AC50) under setting [1] was 2.06 µM [rising, partial curve, poor fit]. On to `COc1cc(-c2nc3cnccn3c2NC(C)(C)CC(C)(C)C)ccc1O`, for which the AC50 under setting [2] is 3.55 µM [falling, partial curve, poor fit].

With `COc1cc(NC(=O)c2c(OC)cccc2OC)ccc1NC(=O)c1cc2ccccc2o1`, under setting [1], the AC50 was 14.1 µM [rising, partial curve, poor fit]. For the compound `COC(=O)C1CCCN1C(=O)COc1ccc(Cl)cc1Br` (configuration not stated), the AC50 under setting [1] is 29.1 µM [rising, single point]. For `CCc1ccccc1NC(=O)CSc1nnc([C@@H]2CCCN2C(=O)OC(C)(C)C)o1`, the AC50 reads like this: under setting [1], 22.4 µM [falling, single point]; under setting [2], 28.2 µM [rising, partial curve, poor fit]. Turning to `Cc1nc2ccccc2c2oc(C(=O)NCCCN3CCCC(C)C3)cc12` (configuration not stated), the AC50 under setting [1] was 35.5 µM [falling, single point]. The same measure, in the same setting: then `CCN(CC)CCCN=C1N[C@@H](c2cccc(C(F)(F)F)c2)C(C(=O)OC)=C(C)N1CC`, with 16.4 µM [falling, partial curve].

For `Cc1ccc(NC(=O)c2cc(C)n(-c3ccccc3)c2C)cc1`, the AC50 under setting [1] was 6.51 µM [falling, partial curve, poor fit].

Consider `Cc1nc(NCc2ccco2)c2c(C)c(C)sc2n1`, for which the AC50 was 32.6 µM [falling, single point] under setting [1] and 16.4 µM [rising, partial curve, poor fit] under setting [2]. Regarding `CC(=O)Nc1ccc(C2=NNC(=Nc3ccc(S(=O)(=O)N4CCOCC4)cc3)SC2)cc1`, the AC50 under setting [1] was 6.31 µM [rising, full curve, poor fit].

As for `O=C(OCC1COc2ccccc2O1)c1c(F)cccc1F` (configuration not stated), under setting [1], the AC50 is 3.16 µM [rising, full curve]. In the case of `Cc1ccc(OCc2ccccc2Br)c([N+](=O)[O-])n1`, the AC50 under setting [1] is 22.4 µM [rising, single point]. Same read-out and setting: in the case of `CCOc1ncccc1C(=O)Nc1ccc(F)c(F)c1` it was 15.8 µM [falling, single point]; in that of `Cc1ccc(-c2nc(C)c(C(=O)O)s2)cc1`, 0.891 µM [falling, full curve]. In the case of `CC(C)Oc1ccc(C(=O)N/N=C/c2ccc(-c3ccc(S(=O)(=O)Nc4ncccn4)cc3)o2)cc1`, the AC50 under setting [1] was 4.11 µM [falling, full curve, poor fit]. The same measure, in the same setting: then `C=CCOC(=O)C1=C(C)NC(SC)=C(C#N)C1c1cccs1` (configuration not stated), with 11.2 µM [falling, partial curve, poor fit]. The same measure, in the same setting: then `CCCCOC(=O)c1nnc(-c2ccccc2)o1`, with 25.1 µM [falling, single point]; and `CCOc1cc(N2CCOCC2)c(OCC)cc1NC(=O)CSc1ncccn1`, with 2.51 µM [rising, partial curve, poor fit]. Same read-out and setting: then `CC1=NN(C(=O)c2ccoc2C)C(O)(C(F)(F)F)C1` (configuration not stated), with 22.4 µM [falling, single point]. Turning to `O=C(NC(=S)Nc1cccc([N+](=O)[O-])c1)c1ccccc1`, under setting [1], the AC50 was 11.2 µM [falling, partial curve]. Same read-out and setting: then `CCOC(=O)c1c(C)n(-c2ccccc2)c2ccc(OCCN(C)C)cc12`, with 11.2 µM [falling, single point]. The same measure, in the same setting: then `COc1ccc(C(=O)Cn2cnc3ccccc3c2=O)cc1`, with 11.2 µM [falling, single point]; and `CCC(=O)Oc1ccc(-c2nc(-c3cccnc3)no2)cc1`, with 20 µM [falling, single point]; and `CN(C)c1ccc(NC(=O)c2ccc(Cn3cc([N+](=O)[O-])cn3)cc2)cc1`, with 22.4 µM [rising, single point]. In the case of `O=C(NC1CC1)c1ccc(-c2nc3ccccc3s2)s1`, under setting [1], the half-maximal activity concentration (AC50) was 6.31 µM [falling, full curve, poor fit]. Same read-out and setting: in the case of `O=C(Nc1cccc(NC(=O)c2ccco2)c1)c1cnccn1` it was 14.6 µM [falling, partial curve].

Turning to `COc1ccccc1C(=O)Nc1ccc(S(=O)(=O)Nc2cc(C)nc(C)n2)cc1`, the half-maximal activity concentration (AC50) under setting [1] is 29.1 µM [rising, single point]. Turning to `CCCCOCCCNC(=O)c1ccc(NC(C)=O)cc1`, the AC50 under setting [1] was 29.1 µM [rising, single point].

In the case of `CCc1sc(C(=O)Nc2ccc(F)cc2C)cc1C`, the AC50 under setting [1] is 23.1 µM [falling, partial curve, poor fit]. On the same count and under the same terms, in the case of `Cc1ccc(N2C(=O)N(CC(=O)C(C)(C)C)c3ccccc3S2(=O)=O)cc1` it was 25.1 µM [rising, partial curve, poor fit]. Take `Cc1ccc(N2C(=O)C3CCC(C)(C2=O)C3(C)C)cc1` (configuration not stated): under setting [1], the AC50 is 10 µM [rising, partial curve, poor fit].

As to `c1ccc(Cn2c(CNc3nc4ccccc4n3CCN3CCCCC3)nc3ccccc32)cc1`, under setting [1], the half-maximal activity concentration (AC50) was 4.11 µM [falling, full curve, poor fit]. The same measure, in the same setting: then `COc1ccc(C(=O)NCCc2ccc(F)cc2)cc1OC`, with 17.8 µM [falling, single point]; and `CCOC(=O)C1=C(CSc2nc(CC)c(C)cc2C#N)OC(N)=C(C#N)C1c1ccc(OC)cc1` (configuration not stated), with 1.46 µM [falling, partial curve, poor fit]. For `CN(C)CCCN(C(=O)/C=C/c1cccs1)c1nc2c(F)cccc2s1`, the concentration at half-maximal activity (AC50) runs as follows: under setting [1], 12.6 µM [falling, partial curve, poor fit]; under setting [2], 12.6 µM [rising, partial curve, poor fit]. Regarding `CCOC(=O)c1[nH]c(C)c(CC(C)C)c1C`, under setting [1], the AC50 is 14.1 µM [rising, single point]. For the compound `CCOC(=O)[C@H]1[C@H]2COc3ccc(C)cc3[C@@H]2N2C(=O)CN(Cc3ccc(Cl)cc3)C(=O)[C@@]12C`, the AC50 under setting [1] is 6.51 µM [falling, single point].
